# Source: the supplement of paper PMC11006884
# Sequences of proteins named here, by UniProt entry; tags and fusion partners are left off. A change or cut given only in a name is not applied to a line headed by its entry.
# UniProt O75475: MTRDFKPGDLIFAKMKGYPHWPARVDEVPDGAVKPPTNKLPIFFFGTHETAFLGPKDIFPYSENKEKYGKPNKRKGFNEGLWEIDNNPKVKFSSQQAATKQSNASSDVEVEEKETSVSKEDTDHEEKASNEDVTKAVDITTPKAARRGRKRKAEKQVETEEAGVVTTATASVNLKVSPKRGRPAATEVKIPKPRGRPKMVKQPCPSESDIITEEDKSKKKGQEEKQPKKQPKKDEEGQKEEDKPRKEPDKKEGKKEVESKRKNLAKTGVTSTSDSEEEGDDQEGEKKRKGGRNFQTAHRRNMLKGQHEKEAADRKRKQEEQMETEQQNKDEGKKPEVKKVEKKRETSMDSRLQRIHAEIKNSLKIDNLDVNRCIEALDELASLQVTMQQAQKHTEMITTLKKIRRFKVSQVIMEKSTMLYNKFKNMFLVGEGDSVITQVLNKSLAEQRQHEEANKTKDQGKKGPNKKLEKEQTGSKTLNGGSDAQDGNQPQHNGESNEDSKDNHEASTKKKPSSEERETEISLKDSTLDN
# UniProt O60232: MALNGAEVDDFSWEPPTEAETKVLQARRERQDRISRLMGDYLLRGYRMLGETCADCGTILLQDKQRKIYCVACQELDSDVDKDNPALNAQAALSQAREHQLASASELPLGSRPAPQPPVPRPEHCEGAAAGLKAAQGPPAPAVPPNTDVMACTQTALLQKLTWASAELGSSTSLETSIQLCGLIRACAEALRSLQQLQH
# UniProt O75821, whole entry, looked up: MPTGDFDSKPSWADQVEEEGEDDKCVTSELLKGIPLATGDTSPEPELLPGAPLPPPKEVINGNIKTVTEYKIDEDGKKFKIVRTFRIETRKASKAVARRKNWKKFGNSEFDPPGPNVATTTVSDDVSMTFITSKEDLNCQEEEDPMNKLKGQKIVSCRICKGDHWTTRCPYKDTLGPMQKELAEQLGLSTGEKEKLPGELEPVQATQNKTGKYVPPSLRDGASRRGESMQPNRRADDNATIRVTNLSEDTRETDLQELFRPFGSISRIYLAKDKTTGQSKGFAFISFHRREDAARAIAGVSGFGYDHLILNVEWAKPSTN
# UniProt O94761: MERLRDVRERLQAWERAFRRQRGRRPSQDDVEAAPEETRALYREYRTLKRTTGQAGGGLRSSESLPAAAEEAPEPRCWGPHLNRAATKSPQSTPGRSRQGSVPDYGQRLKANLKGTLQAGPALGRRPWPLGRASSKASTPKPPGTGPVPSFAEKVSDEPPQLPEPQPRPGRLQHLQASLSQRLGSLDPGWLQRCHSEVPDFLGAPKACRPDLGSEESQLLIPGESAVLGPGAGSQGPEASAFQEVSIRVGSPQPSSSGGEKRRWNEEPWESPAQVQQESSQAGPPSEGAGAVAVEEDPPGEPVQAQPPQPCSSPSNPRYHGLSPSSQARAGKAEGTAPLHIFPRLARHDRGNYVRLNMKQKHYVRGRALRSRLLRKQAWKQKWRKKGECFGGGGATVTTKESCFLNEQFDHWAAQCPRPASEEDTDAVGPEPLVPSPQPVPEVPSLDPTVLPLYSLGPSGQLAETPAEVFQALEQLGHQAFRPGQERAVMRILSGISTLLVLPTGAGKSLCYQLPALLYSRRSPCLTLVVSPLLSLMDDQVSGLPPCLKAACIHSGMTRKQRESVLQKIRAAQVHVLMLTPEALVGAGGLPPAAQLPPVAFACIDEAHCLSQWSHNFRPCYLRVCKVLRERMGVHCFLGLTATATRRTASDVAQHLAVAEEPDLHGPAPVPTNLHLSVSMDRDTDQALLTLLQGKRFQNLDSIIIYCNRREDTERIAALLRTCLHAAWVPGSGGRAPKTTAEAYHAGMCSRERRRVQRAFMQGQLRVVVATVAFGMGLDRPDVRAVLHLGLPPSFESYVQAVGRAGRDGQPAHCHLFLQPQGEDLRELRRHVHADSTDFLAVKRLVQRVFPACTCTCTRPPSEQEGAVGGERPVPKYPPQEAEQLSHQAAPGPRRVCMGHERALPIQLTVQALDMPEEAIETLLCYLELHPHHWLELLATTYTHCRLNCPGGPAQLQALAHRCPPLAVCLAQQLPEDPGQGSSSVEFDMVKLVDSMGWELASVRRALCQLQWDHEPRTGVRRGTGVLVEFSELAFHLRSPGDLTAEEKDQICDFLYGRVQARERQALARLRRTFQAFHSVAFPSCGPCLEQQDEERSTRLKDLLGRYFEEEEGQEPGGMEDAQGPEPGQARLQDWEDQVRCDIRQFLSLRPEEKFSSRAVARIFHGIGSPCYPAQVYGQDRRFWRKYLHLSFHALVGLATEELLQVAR
# UniProt O60568: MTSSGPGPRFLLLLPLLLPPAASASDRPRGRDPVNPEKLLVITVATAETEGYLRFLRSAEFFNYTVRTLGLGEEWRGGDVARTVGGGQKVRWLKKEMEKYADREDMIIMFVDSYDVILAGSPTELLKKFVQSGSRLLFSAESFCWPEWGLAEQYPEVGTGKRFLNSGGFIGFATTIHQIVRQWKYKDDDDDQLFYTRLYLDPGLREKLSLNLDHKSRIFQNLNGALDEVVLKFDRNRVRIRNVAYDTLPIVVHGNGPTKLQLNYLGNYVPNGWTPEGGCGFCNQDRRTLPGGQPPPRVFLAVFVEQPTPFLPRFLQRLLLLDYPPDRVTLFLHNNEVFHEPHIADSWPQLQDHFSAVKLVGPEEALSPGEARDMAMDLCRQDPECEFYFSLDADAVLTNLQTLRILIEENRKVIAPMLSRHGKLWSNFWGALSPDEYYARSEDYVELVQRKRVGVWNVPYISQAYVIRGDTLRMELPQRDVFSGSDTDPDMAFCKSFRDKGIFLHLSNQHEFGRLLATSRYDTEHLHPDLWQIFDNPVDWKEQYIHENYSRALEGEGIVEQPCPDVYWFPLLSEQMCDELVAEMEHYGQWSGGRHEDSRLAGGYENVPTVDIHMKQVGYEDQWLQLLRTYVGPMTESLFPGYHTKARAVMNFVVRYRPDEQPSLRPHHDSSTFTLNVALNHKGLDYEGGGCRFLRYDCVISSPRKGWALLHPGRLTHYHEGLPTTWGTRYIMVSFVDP
# UniProt O75694: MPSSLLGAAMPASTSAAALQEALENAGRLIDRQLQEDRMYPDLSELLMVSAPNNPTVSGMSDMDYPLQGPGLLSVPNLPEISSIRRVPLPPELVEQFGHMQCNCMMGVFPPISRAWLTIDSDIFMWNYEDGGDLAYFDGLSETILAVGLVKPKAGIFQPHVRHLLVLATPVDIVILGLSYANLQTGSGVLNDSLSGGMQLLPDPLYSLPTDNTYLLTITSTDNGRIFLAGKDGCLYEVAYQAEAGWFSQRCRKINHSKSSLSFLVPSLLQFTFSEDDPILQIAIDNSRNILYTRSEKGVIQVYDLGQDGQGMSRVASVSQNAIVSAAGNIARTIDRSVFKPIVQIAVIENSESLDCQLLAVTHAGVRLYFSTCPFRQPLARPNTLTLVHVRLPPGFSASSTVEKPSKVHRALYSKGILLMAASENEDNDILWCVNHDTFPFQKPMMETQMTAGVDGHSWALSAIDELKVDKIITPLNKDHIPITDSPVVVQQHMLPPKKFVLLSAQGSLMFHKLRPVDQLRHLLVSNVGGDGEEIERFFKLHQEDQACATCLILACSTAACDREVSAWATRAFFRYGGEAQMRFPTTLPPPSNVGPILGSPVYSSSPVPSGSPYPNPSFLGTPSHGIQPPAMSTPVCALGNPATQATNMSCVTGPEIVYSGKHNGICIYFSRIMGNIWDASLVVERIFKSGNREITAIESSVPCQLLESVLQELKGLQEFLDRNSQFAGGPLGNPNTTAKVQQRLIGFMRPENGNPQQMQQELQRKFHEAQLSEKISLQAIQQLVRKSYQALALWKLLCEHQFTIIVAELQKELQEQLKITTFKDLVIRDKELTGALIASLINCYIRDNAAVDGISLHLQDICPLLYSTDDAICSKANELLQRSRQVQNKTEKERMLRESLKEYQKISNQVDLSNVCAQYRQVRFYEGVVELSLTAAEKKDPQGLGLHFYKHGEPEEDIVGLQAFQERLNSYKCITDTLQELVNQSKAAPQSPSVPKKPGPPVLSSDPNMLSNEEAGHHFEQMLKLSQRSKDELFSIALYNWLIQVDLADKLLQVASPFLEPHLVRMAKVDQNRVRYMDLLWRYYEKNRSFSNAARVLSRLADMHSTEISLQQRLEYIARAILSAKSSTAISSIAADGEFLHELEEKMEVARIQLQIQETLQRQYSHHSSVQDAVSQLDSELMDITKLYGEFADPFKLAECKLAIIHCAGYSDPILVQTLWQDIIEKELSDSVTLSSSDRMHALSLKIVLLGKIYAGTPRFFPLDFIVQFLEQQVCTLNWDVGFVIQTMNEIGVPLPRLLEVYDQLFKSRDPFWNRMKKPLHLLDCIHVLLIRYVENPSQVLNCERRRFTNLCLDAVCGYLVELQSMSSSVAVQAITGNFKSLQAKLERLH
# UniProt O43776: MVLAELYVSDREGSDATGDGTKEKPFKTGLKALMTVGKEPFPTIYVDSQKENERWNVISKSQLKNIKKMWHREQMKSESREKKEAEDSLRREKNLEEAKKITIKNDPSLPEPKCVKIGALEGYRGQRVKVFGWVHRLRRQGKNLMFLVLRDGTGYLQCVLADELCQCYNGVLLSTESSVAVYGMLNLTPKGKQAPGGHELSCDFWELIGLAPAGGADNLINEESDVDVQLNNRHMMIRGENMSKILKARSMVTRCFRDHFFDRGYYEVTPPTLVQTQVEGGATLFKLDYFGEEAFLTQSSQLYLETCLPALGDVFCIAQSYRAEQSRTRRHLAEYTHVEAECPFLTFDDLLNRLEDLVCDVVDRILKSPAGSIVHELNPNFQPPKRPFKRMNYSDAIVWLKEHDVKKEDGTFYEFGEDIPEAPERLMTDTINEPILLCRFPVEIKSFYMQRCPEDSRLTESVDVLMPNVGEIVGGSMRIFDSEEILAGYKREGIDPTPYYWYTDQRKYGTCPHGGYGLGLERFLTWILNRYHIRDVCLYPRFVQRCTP
# UniProt O75347: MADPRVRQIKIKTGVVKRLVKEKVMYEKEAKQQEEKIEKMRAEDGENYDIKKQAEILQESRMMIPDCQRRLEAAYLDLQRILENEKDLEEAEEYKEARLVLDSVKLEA
# UniProt O60493, whole entry: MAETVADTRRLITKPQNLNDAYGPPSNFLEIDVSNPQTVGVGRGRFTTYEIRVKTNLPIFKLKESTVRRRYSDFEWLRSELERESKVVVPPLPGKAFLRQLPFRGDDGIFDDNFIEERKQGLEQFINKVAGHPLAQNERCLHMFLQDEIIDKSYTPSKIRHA
# UniProt O43290: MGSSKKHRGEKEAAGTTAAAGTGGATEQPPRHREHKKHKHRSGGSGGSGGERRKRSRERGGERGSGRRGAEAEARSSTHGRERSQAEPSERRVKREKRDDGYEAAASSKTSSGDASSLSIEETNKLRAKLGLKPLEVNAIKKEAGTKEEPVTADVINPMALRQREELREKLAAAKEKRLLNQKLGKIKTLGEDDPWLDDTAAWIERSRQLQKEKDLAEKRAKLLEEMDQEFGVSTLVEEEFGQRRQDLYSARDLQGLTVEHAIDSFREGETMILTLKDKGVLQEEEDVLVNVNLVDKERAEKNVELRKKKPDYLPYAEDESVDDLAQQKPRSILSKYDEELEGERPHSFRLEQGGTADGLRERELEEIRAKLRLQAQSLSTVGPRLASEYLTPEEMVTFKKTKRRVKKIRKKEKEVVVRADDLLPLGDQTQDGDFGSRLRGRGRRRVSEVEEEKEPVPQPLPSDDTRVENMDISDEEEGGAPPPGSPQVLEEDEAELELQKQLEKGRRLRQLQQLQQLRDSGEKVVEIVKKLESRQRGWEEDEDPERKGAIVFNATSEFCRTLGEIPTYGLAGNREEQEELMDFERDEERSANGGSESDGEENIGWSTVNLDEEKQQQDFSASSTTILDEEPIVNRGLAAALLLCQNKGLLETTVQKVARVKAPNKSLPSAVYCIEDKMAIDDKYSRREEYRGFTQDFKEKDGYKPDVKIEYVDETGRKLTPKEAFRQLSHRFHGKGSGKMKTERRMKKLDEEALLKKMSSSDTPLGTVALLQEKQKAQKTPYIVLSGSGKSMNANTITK
# The list shows a part of the results, in another mix than the full data.
# Compound: COC(=O)C#Cc1ccccc1 [methyl 3-phenylpropiolate]
# Assay: log2 ratio of iodoacetamide-alkyne labeling of the cysteine site, DMSO over compound (competition); higher = stronger covalent engagement of the cysteine by the compound, active = 1 or more
# Settings: 500 µM; treatment time 1 h; system: HEK293T cell lysate
# Procedure, shortened: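 After 1 h at ambient temperature with vehicle or electrophile (500 µM), HEK293T lysate (2 mg/mL) was labelled for 1 h with iodoacetamide alkyne and clicked to sCIP-TMT reagents. Pooled samples were trypsin-digested overnight at 37 °C, streptavidin-enriched, acid-eluted and analysed by Orbitrap Eclipse LC-MS/MS with FAIMS, then quantified in FragPipe over three replicates with duplicate channels. A cysteine's log2 competition ratio is its mean control-channel over mean compound-channel reporter intensity. Cysteines quantified in only one replicate were not included.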
row,Target,log2 ratio of iodoacetamide-alkyne labeling
1,SRP72 C349 (UniProt O76094),inactive: -0.113
2,RSL1D1 C96 (UniProt O76021),inactive: 0.846
3,RIPK2 C7 (UniProt O43353),inactive: 0.413
4,PRPF3 C37 (UniProt O43395),inactive: 0.317
5,UTP20 C1757 (UniProt O75691),inactive: -0.209
6,WDR1 C170 (UniProt O75083),inactive: 0.73
7,PSIP1 C204 (UniProt O75475),inactive: 0.31
8,AKR7A2 C214 (UniProt O43488),inactive: -0.123
9,UniProt O60232_C56,inactive: 0.126
10,EIF3G C139 (UniProt O75821),inactive: 0.259
11,UniProt O60664_C39,inactive: 0.0449
12,RECQL4 C511 (UniProt O94761),inactive: 0.0234
13,PLOD3 C494 (UniProt O60568),inactive: 0.194
14,CTNND1 C618 (UniProt O60716),inactive: 0.595
15,NUP155 C917 (UniProt O75694),inactive: 0.304
16,USO1 C27 (UniProt O60763),inactive: 0.239
17,ANKRD17 C58 (UniProt O75179),active: 1.35
18,SURF6 C189 (UniProt O75683),inactive: 0.356
19,FLNB C1617 (UniProt O75369),inactive: 0.17

# Single values from the results shown:
# log2 ratio of iodoacetamide-alkyne labeling, SRP72 C349 (UniProt O76094) is entered as inactive: -0.113
# log2 ratio of iodoacetamide-alkyne labeling, UniProt O60232_C56 is entered as inactive: 0.126

# Going on with the list.

row,Target,log2 ratio of iodoacetamide-alkyne labeling
1,ROCK2 C804 (UniProt O75116),inactive: 0.197
2,RANBP6 C48 (UniProt O60518),inactive: -0.059
3,HNRNPR C99 (UniProt O43390),inactive: 0.315
4,UniProt O43776_C452,inactive: 0.223
5,NMT2 C104 (UniProt O60551),inactive: 0.453
6,SF3B1 C677 (UniProt O75533),inactive: 0.316
7,TBCA C67 (UniProt O75347),inactive: 0.0402
8,SNX3 C140 (UniProt O60493),inactive: 0.116
9,EIF5B C635 (UniProt O60841),inactive: 0.158
10,EIF3G C25 (UniProt O75821),inactive: 0.101
11,KPNA6 C208 (UniProt O60684),inactive: 0.479
12,NPM3 C70 (UniProt O75607),inactive: 0.58
13,PAPSS1 C207 (UniProt O43252),inactive: 0.102
14,UniProt O60232_C125,inactive: 0.457
15,SART1 C560 (UniProt O43290),inactive: 0.329
16,RNGTT C419 (UniProt O60942),inactive: 0.533
17,SYNCRIP C289 (UniProt O60506),inactive: 0.0306
18,ZC3H11A C588 (UniProt O75152),inactive: 0.177
